## Primary screen of a compound library

Results are given as percent effect. The controls that fix the scale are not given in the record; negative values are as filed. The compounds are a random part of those screened.

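Assay of Toxoplasma gondii numbers, read through their beta-galactosidase reporter with a colour substrate. Tested at 50 µM. The record gives no direction; the compounds picked for IC50 retests had high values, so higher reads as fewer parasites. About 18,000 compounds were tested under these conditions; 0.94% (about 170) showed 50% or more at least once.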

compound,percent effect
CNC(=O)Nc1cc(Cl)cc2c1OCC2,-8.706
CCN1CCN(Cc2nnnn2C2CC2)CC1,99.81
CS(=O)(=O)CCN(CC(O)c1ccccc1)C1CC1 (stereo unspecified),4.406
OCC1(O)CCCN(Cc2nccs2)CC1 (stereo unspecified),8.447
CC(C)N(CCS(=O)(=O)c1ccccc1)CC(N)=O,2.619
CN(C)C(=O)CC(N)c1ccccc1 (stereo unspecified),1.431
Cc1nnc(CCNC(=O)C2CC(=O)N(C)C2(C)C)s1 (stereo unspecified),0.9936
OC1(CN2CCCCC2)CCN(Cc2ncc[nH]2)C1 (stereo unspecified),-16.72
CNC(=O)CN(C)CCn1c(=O)cc(C)[nH]c1=O,-14.49
COCC(=O)N(C)C1CCc2ccccc21 (stereo unspecified),2.813
Cc1nc(CCNC(=O)C2CNCCO2)sc1C (stereo unspecified),16.28
COc1ccnc(N2CCC(c3nncn3C)CC2)n1,-6.483
CNC1CCN(C(=O)Cc2cc(F)ccc2F)CC1,5.535
COCCNC(=O)COc1ccc2c(c1)OCO2,-7.185
CN1CCCC1C(=O)N1CCNCC1 (stereo unspecified),2.901
CC1CCN(Cc2nnnn2C2CC2)CC1,-2.187
CCNC(=O)C1CN(C(=O)Nc2ccc(F)cc2)C1,-6.712
CC(c1nc(C(C)(C)C)no1)N1CCN(C)CC1 (stereo unspecified),8.823
Cc1cccnc1CNc1ncnc2nc[nH]c12,-25.52
Cc1cccc(OCC(O)CNC(C)C)c1 (stereo unspecified),4.555
c1csc(C2CCCCN2)n1 (stereo unspecified),0.3677
O=C(Cn1cc(Cl)cn1)N[C@@H]1CCNC[C@H]1O,-1.775
NCC(CO)Cc1ccncc1Cl (stereo unspecified),-10.45
CCOc1ccccc1C(=O)NC1CCN(C)CC1,7.176
Nc1cnccc1OCc1ccccc1,0.1746
CN(C)CCc1ccc(CN)cc1,-3.841
COCCNCCNC(=O)c1ccc(Cl)c(C)c1,-4.766
NCc1cn(Cc2ccc(F)cc2)nn1,1.893
N#Cc1cc(CN2CCOCC2)c[nH]c1=O,-8.681
CC(C)N1CCC(N2CCNCC2CCO)CC1 (stereo unspecified),27.84
CS(=O)(=O)NC1CCN(C(=O)C2CCCC2)C1 (stereo unspecified),6.326
CC(=O)NC1CCN(C(C)C)CC1,-6.147
COCC(=O)N(C)C1CCCCC1,21.58
COCC1CNCCO1 (stereo unspecified),-1.478
CN(C)c1ccc2c(c1)OCC(=O)N2,-3.537
NCc1nnc2n1CCCCC2,-1.892
Cc1oncc1CN1C[C@@H](F)C[C@H]1CN,-1.812
CCOC(=O)c1cccnc1NCc1cnn(C)c1C,-8.034
COCCNS(=O)(=O)c1cn[nH]c1C,-2.889
CCc1nc(CN(C)CCC(C)O)no1 (stereo unspecified),7.858
Cc1ccccc1OCC(=O)NC1CCCCNC1=O (stereo unspecified),-9.286
Nc1ccc(C(F)(F)F)nn1,-3.373
Cc1ccc(NS(=O)(=O)c2c(C)nn(C)c2Cl)nc1,14.98
CCn1ccnc1C1CCCCN1 (stereo unspecified),-1.076
Cc1noc([C@@H]2CN(C3CCCC3)C[C@H]2CO)n1,-3.51
Cc1cccc(C2CCCN2CCNS(C)(=O)=O)n1 (stereo unspecified),20.7
C1CCC(C2CCNCC2)OC1 (stereo unspecified),-8.645
Cn1c(CN2CCSCC2)cc(=O)n(C)c1=O,0.7829
Cn1cncc1CCN,7.686
CCS(=O)(=O)N1CCC(NC(=O)c2ccc(Cl)o2)CC1,-2.927
NC(=O)C1Cc2ccccc2CN1C(=O)C1CCC1 (stereo unspecified),-12.48
Cc1cccc(C)c1NC(=O)Cn1cnc(C#N)n1,-0.916
NC(=O)c1cnc(N2CC(CO)C2)c(Cl)c1,11.65
O=C(CN1CCNCC1)c1ccco1,16.37

4 of the entries, repeated:

{"compound": "Cc1ccccc1OCC(=O)NC1CCCCNC1=O", "stereo": "stereo unspecified", "percent effect": -9.286}
{"compound": "CNC(=O)Nc1cc(Cl)cc2c1OCC2", "percent effect": -8.706}
{"compound": "COCC1CNCCO1", "stereo": "stereo unspecified", "percent effect": -1.478}
{"compound": "COCCNCCNC(=O)c1ccc(Cl)c(C)c1", "percent effect": -4.766}

Data taken from ChEMBL document CHEMBL3988442, “University of Dundee, Small-Polar-MMV Screening Library” (2021).